Experimental data reported in PMC11703842.
These are yes or no findings as the source states them, for the method shown. In cells and extracts the contact can be indirect. Some binding calls cover weakened binding; strength is not graded here. Tags and fused reporters may be left off the sequences shown.

Protein sequences, listed by entry. Tags and fused reporters are not part of them.
UniProt Q99942: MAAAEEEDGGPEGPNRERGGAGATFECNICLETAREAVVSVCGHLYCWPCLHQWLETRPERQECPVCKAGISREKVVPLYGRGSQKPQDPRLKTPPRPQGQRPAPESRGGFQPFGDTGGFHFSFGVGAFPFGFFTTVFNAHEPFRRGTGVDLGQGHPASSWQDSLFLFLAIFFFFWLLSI

What was measured:
[1] = target: T1, His-PTGDR2 (PGD2 receptor 2) (UniProt Q9Y5Y4); assay: co-IP; 293T cells with His-PTGDR2 and Flag-RNF5; immunoprecipitation and reverse immunoprecipitation, immunoblot
T1 sequence: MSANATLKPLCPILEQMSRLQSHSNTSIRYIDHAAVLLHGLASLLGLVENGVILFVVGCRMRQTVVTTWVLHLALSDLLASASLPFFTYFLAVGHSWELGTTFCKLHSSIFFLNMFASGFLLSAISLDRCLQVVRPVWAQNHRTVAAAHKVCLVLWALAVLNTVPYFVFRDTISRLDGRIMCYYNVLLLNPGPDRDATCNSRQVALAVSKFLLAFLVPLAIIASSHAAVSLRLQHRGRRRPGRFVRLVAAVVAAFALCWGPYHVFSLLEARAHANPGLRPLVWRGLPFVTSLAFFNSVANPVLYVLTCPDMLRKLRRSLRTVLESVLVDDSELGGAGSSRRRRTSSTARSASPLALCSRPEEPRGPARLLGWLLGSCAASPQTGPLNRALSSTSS

[2] = target: Flag-RNF5 (ring finger protein 5, E3 ubiquitin ligase) (UniProt Q99942); assay: as above

Molecule | binding [1] | binding [2]
Flag-RNF5 (ring finger protein 5, E3 ubiquitin ligase) (from UniProt Q99942 1-180) (enzyme) | binds | 
His-PTGDR2 (PGD2 receptor 2) (receptor, UniProt Q9Y5Y4 1-395) MSANATLKPLCPILEQMSRLQSHSNTSIRYIDHAAVLLHGLASLLGLVENGVILFVVGCRMRQTVVTTWVLHLALSDLLASASLPFFTYFLAVGHSWELGTTFCKLHSSIFFLNMFASGFLLSAISLDRCLQVVRPVWAQNHRTVAAAHKVCLVLWALAVLNTVPYFVFRDTISRLDGRIMCYYNVLLLNPGPDRDATCNSRQVALAVSKFLLAFLVPLAIIASSHAAVSLRLQHRGRRRPGRFVRLVAAVVAAFALCWGPYHVFSLLEARAHANPGLRPLVWRGLPFVTSLAFFNSVANPVLYVLTCPDMLRKLRRSLRTVLESVLVDDSELGGAGSSRRRRTSSTARSASPLALCSRPEEPRGPARLLGWLLGSCAASPQTGPLNRALSSTSS |  | binds
